From the supplement of paper PMC12593923
Structures can show the parent of a compound that is named as a salt. Several reference drugs read as weak here; read low effects with care.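 The three lines are all high-grade serous ovarian cancer cells with differing chemosensitivity; OVCAR3 is described as chemosensitive. Toxicity was normalized between DMSO vehicle wells and fully lysed wells, the score comes from a fitted multi-dose response curve, and a score above 5 was counted as drug sensitivity.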

How the values were obtained:
Assay in all cases: drug sensitivity score (DSS2, cytotoxicity, CellTox Green); higher = more cytotoxic / more sensitive; extreme values may be limits of the assay
Conditions in all cases: 72 h; doses 0.5, 1, 5 µM
Kuramochi = test system: Kuramochi
OVCAR3 = test system: OVCAR3
OVCAR4 = test system: OVCAR4

| Structure (SMILES) | drug sensitivity score (Kuramochi) | drug sensitivity score (OVCAR3) | drug sensitivity score (OVCAR4) |
| --- | --- | --- | --- |
| COc1cc2c3cc1Oc1c(OC)c(OC)cc4c1[C@@H](Cc1ccc(O)c(c1)Oc1ccc(cc1)C[C@@H]3N(C)CC2)N(C)CC4 [Berbamine] | 0 DSS | 0 DSS | 0 DSS |
| NC(=O)c1cccc2cn(-c3ccc([C@@H]4CCCNC4)cc3)nc12 [Niraparib] | 0 DSS | 0 DSS | 0 DSS |
| CC(C)n1c(/C=C/C(O)CC(O)CC(=O)O)c(-c2ccc(F)cc2)c2ccccc21 (stereo not drawn) [Fluvastatin (sodium)] | 0 DSS | 0 DSS | 0 DSS |
| O=c1ccc2ccc(O)c(O)c2o1 [Daphnetin] | 0 DSS | 0 DSS | 0 DSS |
| COc1cc(OC)cc(N(CCNC(C)C)c2ccc3ncc(-c4cnn(C)c4)nc3c2)c1 [Erdafitinib] | 0 DSS | 0.3 DSS | 0 DSS |
| CC(C)c1c(C(=O)Nc2ccccc2)c(-c2ccccc2)c(-c2ccc(F)cc2)n1CC[C@@H](O)C[C@@H](O)CC(=O)O [Atorvastatin (hemicalcium salt)] | 0 DSS | 0 DSS | 0 DSS |
| COc1ccnc(C[S+]([O-])c2nc3cc(OC(F)F)ccc3[nH]2)c1OC (stereo not drawn) [Pantoprazole (sodium)] | 0 DSS | 0 DSS | 0 DSS |
| CCC[C@H](N[C@@H](C)C(=O)N1[C@H](C(=O)O)C[C@@H]2CCCC[C@@H]21)C(=O)OCC [Perindopril (erbumine)] | 0 DSS | 0 DSS | 0 DSS |
| CCOc1cc(C(C)(C)C)ccc1C1=N[C@@](C)(c2ccc(Cl)cc2)[C@@](C)(c2ccc(Cl)cc2)N1C(=O)N1CCN(CC(=O)N2CCOCC2)CC1 | 0 DSS | 0 DSS | 0 DSS |
| CN(Cc1cc(Br)cc(Br)c1N)C1CCCCC1 [Bromhexine (hydrochloride)] | 0 DSS | 0 DSS | 0 DSS |
| O=C(c1ccc(F)cc1)C1CCN(CCn2c(=O)[nH]c3ccccc3c2=O)CC1 [Ketanserin (tartrate)] | 0 DSS | 0 DSS | 0 DSS |
| CCc1c2c(nc3ccc(OC(=O)N4CCC(N5CCCCC5)CC4)cc13)-c1cc3c(c(=O)n1C2)COC(=O)[C@]3(O)CC [Irinotecan (hydrochloride)] | 0 DSS | 0 DSS | 0 DSS |
| O=C1C(c2c(O)[nH]c3ccccc23)=Nc2ccccc21 [Indirubin] | 0 DSS | 0 DSS | 0 DSS |
| Fc1ccc([C@@H]2CCNC[C@H]2COc2ccc3c(c2)OCO3)cc1 [Paroxetine (hydrochloride)] | 0 DSS | 0 DSS | 0 DSS |
| C[C@H]1C[C@H]2[C@@H]3CCC4=CC(=O)C=C[C@]4(C)[C@H]3C(=O)C[C@]2(C)[C@@]1(O)C(=O)CO [Meprednisone] | 0 DSS | 0 DSS | 0 DSS |
| NNC(=O)c1ccncc1 [Isoniazid] | 0 DSS | 0 DSS | 0 DSS |
| FC(F)(F)c1ccc(CNc2ccc(Cc3c[nH]c4ncc(Cl)cc34)cn2)cn1 [Pexidartinib] | 0 DSS | 0 DSS | 0 DSS |
| CCOC(=O)c1[nH]c2cc(Cl)ccc2c1C(C(=O)NC(C)(C)C)N(C=O)Cc1ccc(Cl)cc1 (stereo not drawn) [YH239-EE] | 0 DSS | 0 DSS | 0 DSS |
| O=C1CCC(N2C(=O)c3ccccc3C2=O)C(=O)N1 (stereo not drawn) [Thalidomide] | 2.5 DSS | 3.4 DSS | 0 DSS |
| Nc1ncn([C@H]2C[C@H](O)[C@@H](CO)O2)c(=O)n1 [Decitabine] | 0 DSS | 0 DSS | 0 DSS |
| CC1(C)NC(=O)N(c2ccc([N+](=O)[O-])c(C(F)(F)F)c2)C1=O [Nilutamide] | 0 DSS | 0 DSS | 0 DSS |
| O=C1CCc2cc(OCCCCc3nnnn3C3CCCCC3)ccc2N1 [Cilostazol] | 0 DSS | 0 DSS | 0 DSS |
| C=CC1=C(C)c2cc3[n-]c(cc4[n-]c(cc5nc(cc1n2)C(C)=C5C=C)c(C)c4CCC(=O)O)c(CCC(=O)O)c3C.[Cl-].[Fe+3] [Hemin] | 0 DSS | 0 DSS | 0 DSS |

| Structure (SMILES) | drug sensitivity score (Kuramochi) | drug sensitivity score (OVCAR3) | drug sensitivity score (OVCAR4) |
| --- | --- | --- | --- |
| CC1(C)CCC(C)(C)c2cc(NC(=O)c3ccc(C(=O)O)cc3)ccc21 [Tamibarotene] | 0 DSS | 0 DSS | 0 DSS |
| CC(=O)[C@H]1CC[C@H]2[C@@H]3CC=C4C[C@@H](OS(=O)(=O)O)CC[C@]4(C)[C@H]3CC[C@]12C [Pregnenolone monosulfate] | 0 DSS | 0 DSS | 0 DSS |
| CN1CC[C@@H](NC(=O)Nc2ccc(C#N)cc2)C[C@@H]1c1nc2ccccc2[nH]1 [Glasdegib] | 0 DSS | 0 DSS | 0 DSS |
| C[C@@H]1CC[C@@]2(OC1)O[C@H]1C[C@H]3[C@@H]4CC=C5C[C@@H](O[C@@H]6O[C@H](CO)[C@@H](O[C@@H]7O[C@@H](C)[C@H](O)[C@@H](O)[C@H]7O)[C@H](O)[C@H]6O[C@@H]6O[C@@H](C)[C@H](O)[C@@H](O)[C@H]6O)CC[C@]5(C)[C@H]4CC[C@]3(C)[C@H]1[C@@H]2C [Dioscin] | 2.1 DSS | 1.7 DSS | 2.5 DSS |
| CN(C)C(=N)NC(=N)N [Metformin] | 0 DSS | 0 DSS | 0 DSS |
| COc1cc([C@@H]2c3cc4c(cc3[C@@H](O[C@@H]3O[C@@H]5CO[C@@H](C)O[C@H]5[C@H](O)[C@H]3O)[C@H]3COC(=O)[C@H]23)OCO4)cc(OC)c1OP(=O)(O)O [Etoposide phosphate] | 0 DSS | 0 DSS | 0 DSS |
| C1COC(NC(C2CC2)C2CC2)=N1 [Rilmenidine (hemifumarate)] | 0 DSS | 0 DSS | 0 DSS |
| OC(c1cc(C(F)(F)F)nc2c(C(F)(F)F)cccc12)C1CCCCN1 (stereo not drawn) [Mefloquine (hydrochloride)] | 0 DSS | 0 DSS | 0.5 DSS |
| CCc1c(Cl)c(O)c(Cl)c(O)c1C(=O)O[C@H]1[C@H](O)[C@H](OC)[C@H](OC/C2=C\C=C\C[C@H](O)/C(C)=C/[C@H](CC)[C@@H](O[C@@H]3OC(C)(C)[C@@H](OC(=O)C(C)C)[C@H](O)[C@@H]3O)/C(C)=C/C(C)=C/C[C@@H]([C@@H](C)O)OC2=O)O[C@@H]1C [Fidaxomicin] | 0 DSS | 0 DSS | 0 DSS |
| C[C@@H](Oc1cc(-c2cnn(C3CCNCC3)c2)cnc1N)c1c(Cl)ccc(F)c1Cl [Crizotinib] | 0 DSS | 0 DSS | 0 DSS |
| Nc1c(Br)cc(Br)cc1CN[C@H]1CC[C@H](O)CC1 [Ambroxol (hydrochloride)] | 0 DSS | 0 DSS | 0 DSS |
| CCCCCCCCCCCC1=C(O)C(=O)C=C(O)C1=O [Embelin] | 0 DSS | 0 DSS | 0 DSS |
| CCOc1nc2cccc(C(=O)OC(C)OC(=O)OC3CCCCC3)c2n1Cc1ccc(-c2ccccc2-c2nn[nH]n2)cc1 (stereo not drawn) [Candesartan Cilexetil] | 0 DSS | 0 DSS | 0 DSS |
| NC(=O)NO [Hydroxyurea] | 0 DSS | 3.4 DSS | 0 DSS |
| CCCCNC(=O)NS(=O)(=O)c1ccc(C)cc1 [Tolbutamide] | 0 DSS | 0 DSS | 0 DSS |
| CCCC(CCC)C(=O)O [Valproic acid (sodium salt)] | 0 DSS | 0 DSS | 0 DSS |
| Nc1cccc2c1CN(C1CCC(=O)NC1=O)C2=O (stereo not drawn) [Lenalidomide (hemihydrate)] | 0 DSS | 2.6 DSS | 0 DSS |
| CCCCc1nc(C)c(CC(=S)N(C)C)c(=O)n1Cc1ccc(-c2ccccc2-c2nnn[nH]2)cc1 [Fimasartan] | 0 DSS | 0 DSS | 0 DSS |
| NCCS [Cysteamine hydrochloride] | 0 DSS | 0 DSS | 1.8 DSS |
| CC(=O)Oc1cc(C)c(OC(C)=O)c2ccccc12 [Vitamin K4] | 0.1 DSS | 0 DSS | 0 DSS |
| C/C(=C\c1csc(C)n1)[C@@H]1C[C@@H]2O[C@]2(C)CCC[C@H](C)[C@H](O)[C@@H](C)C(=O)C(C)(C)[C@@H](O)CC(=O)N1 [Ixabepilone] | 2 DSS | 1 DSS | 0 DSS |
| CN(C)CCCCC(=O)Nc1ccc(NC(=S)NC(=O)c2ccc(C(C)(C)C)cc2)cc1 [Tenovin-6 (Hydrochloride)] | 0 DSS | 0 DSS | 0 DSS |
| O=C1c2c(O)ccc(O)c2C(=O)c2c(NCCNCCO)ccc(NCCNCCO)c21 [Mitoxantrone] | 0 DSS | 0 DSS | 0 DSS |

Given comma-delimited: two of the compounds above.
Structure (SMILES),drug sensitivity score (Kuramochi),drug sensitivity score (OVCAR3),drug sensitivity score (OVCAR4)
CCOc1cc(C(C)(C)C)ccc1C1=N[C@@](C)(c2ccc(Cl)cc2)[C@@](C)(c2ccc(Cl)cc2)N1C(=O)N1CCN(CC(=O)N2CCOCC2)CC1,0 DSS,0 DSS,0 DSS
CN(Cc1cc(Br)cc(Br)c1N)C1CCCCC1 [Bromhexine (hydrochloride)],0 DSS,0 DSS,0 DSS
